{
  "source": "paper PMC5610242",
  "about": "“Stapled peptide inhibitors of RAB25 target context-specific phenotypes in cancer” (Nature Communications, 2017)",
  "molecular_target": "T1, HA-RAB25 (UniProt P57735)",
  "T1 sequence": "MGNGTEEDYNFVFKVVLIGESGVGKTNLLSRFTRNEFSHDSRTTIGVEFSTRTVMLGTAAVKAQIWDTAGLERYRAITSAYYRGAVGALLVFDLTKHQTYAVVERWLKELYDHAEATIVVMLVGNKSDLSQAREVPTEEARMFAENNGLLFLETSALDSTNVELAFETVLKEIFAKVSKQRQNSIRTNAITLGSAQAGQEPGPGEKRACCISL",
  "assay": "co-IP; lysate of HEY HA-RAB25 cells transfected with pcDNA3-His B-FIP1; anti-HA agarose; blot for FIP1; lysate pretreated with DMSO or RFP peptides 1 h at 4 °C",
  "note": "No constants are given. Whether binding was seen depends on the method and setting. In cells and extracts the contact can be indirect. A result given as binding can be weak or reduced; the word gives no strength. Sequences can lack the tags named with a protein.",
  "data": [
    {"substance": "H6-FIP1", "values": [
      {"measurement": "binding", "result": "binds"}
    ]}
  ]
}
